Experimental findings from PMC11022708 are described below.

The chains behind the UniProt entries cited, without tags or fusion partners.
UniProt O60828: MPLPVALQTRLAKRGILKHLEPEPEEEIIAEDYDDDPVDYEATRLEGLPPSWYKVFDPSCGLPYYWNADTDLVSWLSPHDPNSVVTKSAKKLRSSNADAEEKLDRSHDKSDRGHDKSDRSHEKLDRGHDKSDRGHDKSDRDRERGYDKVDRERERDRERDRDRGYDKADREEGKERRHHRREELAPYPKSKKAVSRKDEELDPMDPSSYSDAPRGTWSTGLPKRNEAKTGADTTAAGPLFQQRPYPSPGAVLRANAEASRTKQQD
UniProt O75533: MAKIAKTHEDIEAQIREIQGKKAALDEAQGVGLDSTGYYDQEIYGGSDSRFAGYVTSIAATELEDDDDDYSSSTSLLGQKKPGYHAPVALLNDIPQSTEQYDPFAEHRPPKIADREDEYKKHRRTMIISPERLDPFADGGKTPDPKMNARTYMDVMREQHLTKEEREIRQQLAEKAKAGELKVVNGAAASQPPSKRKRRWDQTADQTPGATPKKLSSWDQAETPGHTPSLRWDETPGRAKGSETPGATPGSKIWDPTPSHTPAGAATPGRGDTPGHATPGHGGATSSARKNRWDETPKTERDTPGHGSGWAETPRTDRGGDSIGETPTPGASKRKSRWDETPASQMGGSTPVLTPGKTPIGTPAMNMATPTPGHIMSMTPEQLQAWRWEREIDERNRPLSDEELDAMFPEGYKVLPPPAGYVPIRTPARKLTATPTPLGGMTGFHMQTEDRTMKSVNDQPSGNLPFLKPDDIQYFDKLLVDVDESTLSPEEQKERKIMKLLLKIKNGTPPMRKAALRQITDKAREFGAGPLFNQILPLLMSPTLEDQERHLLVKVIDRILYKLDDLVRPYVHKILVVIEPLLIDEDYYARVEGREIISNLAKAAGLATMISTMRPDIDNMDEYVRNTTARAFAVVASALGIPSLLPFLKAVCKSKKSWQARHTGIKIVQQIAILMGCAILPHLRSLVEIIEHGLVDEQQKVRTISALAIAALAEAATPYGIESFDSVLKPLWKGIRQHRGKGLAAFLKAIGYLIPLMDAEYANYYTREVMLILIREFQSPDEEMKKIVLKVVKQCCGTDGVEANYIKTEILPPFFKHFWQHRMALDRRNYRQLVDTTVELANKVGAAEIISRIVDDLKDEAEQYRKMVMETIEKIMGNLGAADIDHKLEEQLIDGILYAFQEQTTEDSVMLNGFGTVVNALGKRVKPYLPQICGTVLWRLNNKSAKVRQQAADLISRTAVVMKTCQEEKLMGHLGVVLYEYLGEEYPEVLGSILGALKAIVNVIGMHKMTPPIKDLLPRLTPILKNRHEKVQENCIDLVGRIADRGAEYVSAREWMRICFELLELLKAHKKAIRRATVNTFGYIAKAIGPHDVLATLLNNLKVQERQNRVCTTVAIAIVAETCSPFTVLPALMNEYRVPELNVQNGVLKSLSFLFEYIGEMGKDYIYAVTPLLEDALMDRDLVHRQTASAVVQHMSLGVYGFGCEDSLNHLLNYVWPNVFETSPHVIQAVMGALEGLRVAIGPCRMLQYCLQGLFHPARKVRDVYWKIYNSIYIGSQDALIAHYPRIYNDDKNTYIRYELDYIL
UniProt Q9Y2W2: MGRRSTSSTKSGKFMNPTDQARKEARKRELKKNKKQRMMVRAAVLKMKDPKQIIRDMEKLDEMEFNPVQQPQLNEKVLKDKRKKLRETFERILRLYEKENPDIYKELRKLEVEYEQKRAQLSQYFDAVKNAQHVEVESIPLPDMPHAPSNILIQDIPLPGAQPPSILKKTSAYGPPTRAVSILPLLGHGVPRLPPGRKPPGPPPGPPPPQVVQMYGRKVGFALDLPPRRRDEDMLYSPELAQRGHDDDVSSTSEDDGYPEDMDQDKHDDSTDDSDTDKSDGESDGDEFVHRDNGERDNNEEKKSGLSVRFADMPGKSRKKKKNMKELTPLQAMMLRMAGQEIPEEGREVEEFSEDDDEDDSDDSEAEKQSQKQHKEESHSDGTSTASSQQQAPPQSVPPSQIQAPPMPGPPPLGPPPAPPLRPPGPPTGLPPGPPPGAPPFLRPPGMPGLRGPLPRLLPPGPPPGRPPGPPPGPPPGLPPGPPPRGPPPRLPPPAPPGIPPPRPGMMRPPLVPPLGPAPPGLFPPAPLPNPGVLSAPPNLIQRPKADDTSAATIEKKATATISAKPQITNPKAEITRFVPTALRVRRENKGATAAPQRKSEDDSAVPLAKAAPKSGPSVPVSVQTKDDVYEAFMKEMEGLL

In the assay the target is FLAG-tagged PQBP1 (polyglutamine binding protein-1) (UniProt O60828). The experiment in a line: affinity purification with mass spectrometry; FLAG-tagged PQBP1 precipitated from HEY whole-cell extracts (WIP buffer) with FLAG antibody and magnetic Protein A/G beads overnight at 4 °C; beads washed three times; bands cut from a Coomassie-stained SDS-PAGE gel and analysed by LC-MS/MS.

These are yes or no findings as the source states them, for the method shown. In cells and extracts the contact can be indirect. These calls come from enrichment with a bait or labelling near it, and not all partners need be listed.

Take SF3B1 (from UniProt O75533 1-1304): the binding entry is given as “binds”. WBP11 (from UniProt Q9Y2W2 1-641): the binding result was “binds”.
